Values from PubChem BioAssay AID1671195 (Yale University, 2021).
Aim: 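Knockdowns that increase or decrease uptake of fluorescent LDL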 (primary screen). System: human Huh7 hepatoma cells. Reagents: siRNA pool against human genes, 18 nM. Duration: about 2 to 2.5 days of knockdown, then 8 h LDL uptake. Conditions: DiI-labelled LDL at 30 µg/ml for 8 h, in lipoprotein-deficient serum medium. Read-out: 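Fluorescent LDL signal imaged in cells, scaled to the plate median, robust z-score for each replicate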. Scale: robust z-score: higher = more LDL uptake after knockdown. Hit rule: 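a gene counts as active if at least two replicate z-scores exceed ±2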.
Here is one part, drawn at random, of about 22,000 reagents. About 1,510 of all reagents (6.9%) count as active. 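Active includes knockdowns raising or lowering LDL uptake; positive z-scores mean more uptake, negative mean less.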

no.	gene knocked down	robust z-score, replicate 1	robust z-score, replicate 2	robust z-score, replicate 3	call
1	FLT1 (fms related receptor tyrosine kinase 1)	-0.331	-0.344	-0.0699	inactive
2	SNX13 (sorting nexin 13)	0.839	2.76	2	active
3	RASSF3 (Ras association domain family member 3)	-1.01	-0.714	-0.932	inactive
4	LOC388617 (retired record)	0.157	0.724	0.733	inactive
5	GATD1 (glutamine amidotransferase class 1 domain containing 1)	-1.44	-1.35	-1.52	inactive
6	LARGE1 (LARGE xylosyl- and glucuronyltransferase 1)	0.43	0.0787	-0.0354	inactive
7	GPC4 (glypican 4)	1.98	3.47	3.11	active
8	MIMS2 (mitochondrial inner membrane structural 2)	-1.51	-0.759	-0.692	inactive
9	GOLGA6L4 (golgin A6 family like 4)	-1.11	-0.906	-0.747	inactive
10	S100A16 (S100 calcium binding protein A16)	-0.703	-0.164	-0.347	inactive
11	TRPA1	-0.837	-0.667	-0.451	inactive
12	ATF5 (activating transcription factor 5)	2.75	2.11	2.4	active
13	IGF2BP1 (insulin like growth factor 2 mRNA binding protein 1)	1.56	0.172	0.25	inactive
14	DCX (doublecortin)	1.82	-0.0996	0.865	inactive
15	NUDT16 (nudix hydrolase 16)	2.23	2.56	1.24	active
16	GPRC6A (G protein-coupled receptor class C group 6 member A)	0.373	-0.877	0.98	inactive
17	RAB29 (RAB29, member RAS oncogene family)	-0.322	-0.686	-0.458	inactive
18	RPSAP55 (ribosomal protein SA pseudogene 55)	-0.501	-0.5	-0.408	inactive
19	FARS2 (phenylalanyl-tRNA synthetase 2, mitochondrial)	-0.718	-0.661	-0.859	inactive
20	BAG1 (BAG cochaperone 1)	-0.457	-0.536	0.284	inactive
21	NKD1 (NKD inhibitor of Wnt signaling pathway 1)	-0.402	-0.303	-0.6	inactive
22	ZNF317 (zinc finger protein 317)	0.047	0.019	-0.0126	inactive
23	UGT1A8 (UDP glucuronosyltransferase family 1 member A8)	0.631	0.736	1.09	inactive
24	SPINDOC (spindlin interactor and repressor of chromatin binding)	-1.76	-2.04	-1.17	inactive
25	MAP4K1 (mitogen-activated protein kinase kinase kinase kinase 1)	-0.335	-0.163	0.208	inactive
26	MACROH2A2 (macroH2A.2 histone)	-1.59	-0.769	0.331	inactive
27	KLHDC9 (kelch domain containing 9)	0.729	0.454	0.575	inactive
28	LOC389398 (retired record)	-1.6	-1.41	-1.53	inactive

Records listed so far whose gene name begins with G or g (4):
gene knocked down	robust z-score, replicate 1	robust z-score, replicate 2	robust z-score, replicate 3	call
GATD1 (glutamine amidotransferase class 1 domain containing 1)	-1.44	-1.35	-1.52	inactive
GPC4 (glypican 4)	1.98	3.47	3.11	active
GOLGA6L4 (golgin A6 family like 4)	-1.11	-0.906	-0.747	inactive
GPRC6A (G protein-coupled receptor class C group 6 member A)	0.373	-0.877	0.98	inactive
